Some of the results follow.

The target in this test is T1, OsSMF1 (Oryza sativa, UniProt Q6ZLB0 1-436).
T1 sequence: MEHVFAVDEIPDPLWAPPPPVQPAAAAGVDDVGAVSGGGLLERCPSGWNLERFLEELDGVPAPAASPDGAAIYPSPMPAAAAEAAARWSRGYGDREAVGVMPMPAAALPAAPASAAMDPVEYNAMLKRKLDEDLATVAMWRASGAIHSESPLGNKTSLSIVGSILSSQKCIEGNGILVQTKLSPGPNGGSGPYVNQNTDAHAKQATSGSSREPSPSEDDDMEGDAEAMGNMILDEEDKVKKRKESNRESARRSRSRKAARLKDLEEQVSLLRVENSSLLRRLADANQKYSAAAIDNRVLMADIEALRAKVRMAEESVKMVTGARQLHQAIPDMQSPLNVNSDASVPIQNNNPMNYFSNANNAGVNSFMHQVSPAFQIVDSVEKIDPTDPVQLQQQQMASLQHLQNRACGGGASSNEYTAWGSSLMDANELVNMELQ
In words: protein-binding microarray (RPBM); PBS, 2% BSA, 51.3 ng/ul salmon testes DNA, 50 uM zinc acetate, 200 nM TF, 25 C, 1 h; high values mean tight binding. To be noted: protein: recombinant; tags: N-terminal polyhistidine and DsRed monomer fusion (pET32a); chain copies: 2; label: CyDye5-dUTP incorporated in the synthesized complementary strand; 3' TTTTT single-stranded linker to array surface; dsDNA, one strand shown. An outline of the steps: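 In PBS with 2% BSA, salmon testes DNA and 50 µM zinc acetate, 200 nM protein was incubated on a custom Agilent array at 25 °C for 1 h and then washed off. The array had been made double-stranded by primer extension with Cy5-dUTP and blocked with 2% BSA. The proteins were transcription factors fused N-terminally to polyhistidine and DsRed, expressed in E. coli BL21-CodonPlus and purified on Ni–NTA. The binding signal is per-feature fluorescence intensity (arbitrary units) from an Axon 4000B scanner.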
With “AATTTGGTGGGGTCGGGGTGGGTGCTTTAACTGGGGAGATCGGAGTCACCTAGTGCAG”, the binding signal was 3860 fluorescence intensity (a.u.).

As to “CCAAACTAGTTCTTACTGGTTCTTATCGAAGACATGTTCACGGAGTCACCTAGTGCAG”, the binding signal is 3590 fluorescence intensity (a.u.).

With “ATCGCAATATACACGCAGGACGTGGACATCCTGTGGTTCCCGGAGTCACCTAGTGCAG”, the binding signal is 5910 fluorescence intensity (a.u.).

For the sequence “GCGTTTTGCTTTAAGATTGTGAAACGCCACGTGTCATTACCGGAGTCACCTAGTGCAG”, the binding signal is 23100 fluorescence intensity (a.u.).

Turning to “CCCCTCCACATGGCGCGCCACACCCACGAGACCACCACGTCGGAGTCACCTAGTGCAG”, the binding signal is 3180 fluorescence intensity (a.u.).

On to “TTTGAACAGCTCGAAATGCCACGTCAGGCATAGGCAAGTTCGGAGTCACCTAGTGCAG”, for which the binding signal was 23800 fluorescence intensity (a.u.).

In the case of “TGTGTTCACGTCGGCGTACGTGTTTCATCGCAGTGTGCCCCGGAGTCACCTAGTGCAG”, the binding signal is 4260 fluorescence intensity (a.u.).

On to “CACCATTGTCCCCTGCAAACTTCTAAGCAAAGCTCTATGACGGAGTCACCTAGTGCAG”, for which the binding signal was 14100 fluorescence intensity (a.u.).

On to “TGGGGAGACCCAAAATTAACAAACATTCAAACAGAAAGGACGGAGTCACCTAGTGCAG”, for which the binding signal was 13300 fluorescence intensity (a.u.).

Regarding “TAGCTTCTCGTCGACGCTTTTGCCTCCGTCTATATAAGACCGGAGTCACCTAGTGCAG”, the binding signal was 3140 fluorescence intensity (a.u.).

For the sequence “CCCAATTGCGTCGTCGTGTCAGCCTCCGACCGTCTCCCCGCGGAGTCACCTAGTGCAG”, the binding signal is 6920 fluorescence intensity (a.u.).

In the case of “CAAATGTCCAATTGACGCACCACCTCGATCCGTACCGTCGCGGAGTCACCTAGTGCAG”, the binding signal was 3700 fluorescence intensity (a.u.).

On to “TCAGCCACATCATCACCACTGAATTGCATGGAACCTTGCTCGGAGTCACCTAGTGCAG”, for which the binding signal was 11600 fluorescence intensity (a.u.).

For the sequence “GGAAGTCTGGTTGTGGTCTGTTGTTGGCACCGTAGGTTTTCGGAGTCACCTAGTGCAG”, the binding signal was 3690 fluorescence intensity (a.u.).

As for “CTCTCCCAGCGGTAATGGAGGGCGGTTTTGCTGACGTGGCCGGAGTCACCTAGTGCAG”, the binding signal was 58300 fluorescence intensity (a.u.).

On to “AATTGACTCATATACGGATGACGTACCAAAATACCGGCAACGGAGTCACCTAGTGCAG”, for which the binding signal is 6910 fluorescence intensity (a.u.).

With “CTTCATTTATCTCAAAATATAATAACCTACAATCAGATGTCGGAGTCACCTAGTGCAG”, the binding signal is 10100 fluorescence intensity (a.u.).

Regarding “AGTAGCACTACTAGTTAATGACGTAATGACCAAGTACTCGCGGAGTCACCTAGTGCAG”, the binding signal is 3950 fluorescence intensity (a.u.).

Turning to “TAGTAGAATTTCTCACATTGACACGCGGCAAAACAAATACCGGAGTCACCTAGTGCAG”, the binding signal was 4980 fluorescence intensity (a.u.).

On to “TATGTAGTACCACCCTGGTGTCACACATGTACCACTTGGTCGGAGTCACCTAGTGCAG”, for which the binding signal is 3910 fluorescence intensity (a.u.).

“AGACCACCTCATGAAGCAATTTCTAGGCAAATTCCAGTGACGGAGTCACCTAGTGCAG”: the binding signal is 32400 fluorescence intensity (a.u.).

As to “GAAAAGATAAGGCCACGCATGTCGTAGTTGACGTAGGCCCCGGAGTCACCTAGTGCAG”, the binding signal was 4870 fluorescence intensity (a.u.).

Consider “GCTAGCTTGTCTGTCTTTTGACTCTTCTGTTTCCATGAGGCGGAGTCACCTAGTGCAG”, for which the binding signal is 3380 fluorescence intensity (a.u.).

Take “GGCCACGGGCGGGCCACGGCCACCGAGCGGTGAAAAGGGGCGGAGTCACCTAGTGCAG”: the binding signal was 3900 fluorescence intensity (a.u.).

As for “GGAATGACGACGACGACGACGAGGAGTCATCGGCTCCGGGCGGAGTCACCTAGTGCAG”, the binding signal was 4070 fluorescence intensity (a.u.).

Regarding “AAAGTACTCCCTATGATCTTTAATATATGATGTCATTTTACGGAGTCACCTAGTGCAG”, the binding signal was 6610 fluorescence intensity (a.u.).

Turning to “GACTTTGGGAGGAAAAGGAGTCAAATTTCTGGTCAATGCACGGAGTCACCTAGTGCAG”, the binding signal is 22300 fluorescence intensity (a.u.).

With “GGCGACAGAGGTGGCCGCCGCGGCGTCGCACGCCACGACGCGGAGTCACCTAGTGCAG”, the binding signal was 3430 fluorescence intensity (a.u.).

As to “CCCCGGACAGATCGGTCCACCTGTCCGTGACACGTGCTCACGGAGTCACCTAGTGCAG”, the binding signal is 11600 fluorescence intensity (a.u.).

Regarding “TATCCTCTCGTTTTGTGCATGTCACCTAAATAGTTATAAACGGAGTCACCTAGTGCAG”, the binding signal was 3170 fluorescence intensity (a.u.).

With “TTGACATAAGTAGTTGTTTGGCCACTGTCGAAGTTGCAAGCGGAGTCACCTAGTGCAG”, the binding signal is 27800 fluorescence intensity (a.u.).

With “TTTGGCTGAAGCATATGTCCATCCAGCAATGTTGTACCAACGGAGTCACCTAGTGCAG”, the binding signal was 3150 fluorescence intensity (a.u.).

For the sequence “TCCGCAGCTTTCCGCGCACGCCACCTGTTCGACGGAACGCCGGAGTCACCTAGTGCAG”, the binding signal is 3350 fluorescence intensity (a.u.).

As to “ATTATCCGTACCACTTTCATCCTACTCACCACCAGCAAGCCGGAGTCACCTAGTGCAG”, the binding signal was 4260 fluorescence intensity (a.u.).

Turning to “TCCACGGGCCTCCCGGCCTCCTCGCCGCACACGTAGCCCGCGGAGTCACCTAGTGCAG”, the binding signal was 4040 fluorescence intensity (a.u.).

Consider “TTGTCCTAGGCTGACACGCCAGTCCCACTCTCTCCATTTACGGAGTCACCTAGTGCAG”, for which the binding signal is 4610 fluorescence intensity (a.u.).

“TTAGGGTACAATTAAAACAAAATATTGATGCTTAAATTTCCGGAGTCACCTAGTGCAG”: the binding signal is 3250 fluorescence intensity (a.u.).

In the case of “AGACTGGATTAACACTATGAGGTACATGTAACTCTCAATACGGAGTCACCTAGTGCAG”, the binding signal was 18100 fluorescence intensity (a.u.).

For the sequence “CCGCCCGGAAATGCTGCTCCCACGGCATTTTGCGCTGGCGCGGAGTCACCTAGTGCAG”, the binding signal is 3180 fluorescence intensity (a.u.).

Take “CGTGGTCGACAACACCACCGACGTCGAGTCGGCGCGGCTCCGGAGTCACCTAGTGCAG”: the binding signal is 3400 fluorescence intensity (a.u.).

Turning to “CCCAGCACCCTACTACACCAACATACTCCTACGTGGAGCACGGAGTCACCTAGTGCAG”, the binding signal is 6040 fluorescence intensity (a.u.).

For the sequence “GGCTCCGGAACTTACTCTAGCGCGCGTCGGATGACAAAATCGGAGTCACCTAGTGCAG”, the binding signal was 5060 fluorescence intensity (a.u.).

In the case of “ACACTCCCATCCCACCTCCACCGACCGCGTCCGGTCCATCCGGAGTCACCTAGTGCAG”, the binding signal is 3580 fluorescence intensity (a.u.).

“GCGCCATGATGTTCAATCAGATGACATCATAACGTAAAGACGGAGTCACCTAGTGCAG”: the binding signal is 3570 fluorescence intensity (a.u.).

As to “TTCTTTATTAGACATACTCTGCCACCACTGCACACAATCCCGGAGTCACCTAGTGCAG”, the binding signal was 3640 fluorescence intensity (a.u.).

In the case of “GGCCTCCGCCGCGCATGTGGAGCTCCACCTCTGTCGGCATCGGAGTCACCTAGTGCAG”, the binding signal is 3930 fluorescence intensity (a.u.).

In the case of “AGATAACGTTTTGGTATCATACAGATAACGTACGTTCTGGCGGAGTCACCTAGTGCAG”, the binding signal is 15100 fluorescence intensity (a.u.).

Take “GGAGGATGCGGGTGGTGGTGGAGGAGGAGGAGGCCGAGGTCGGAGTCACCTAGTGCAG”: the binding signal is 3650 fluorescence intensity (a.u.).

For the sequence “GGCGGTTAGCATGAGCCAATAACCGTGTGCCACGTTATTTCGGAGTCACCTAGTGCAG”, the binding signal was 7000 fluorescence intensity (a.u.).

With “TGTGCCAGTCACTGACAACATGTTATCTTATGACAAAATGCGGAGTCACCTAGTGCAG”, the binding signal is 3460 fluorescence intensity (a.u.).

Consider “CTTGCCGTCGACGCGAAGGAACCGCCACCCGACGTCAGCTCGGAGTCACCTAGTGCAG”, for which the binding signal is 5610 fluorescence intensity (a.u.).

With “CACTGGCCGAAAGTCCATTTTGCTTGTGCAAGCCATGTGGCGGAGTCACCTAGTGCAG”, the binding signal is 3650 fluorescence intensity (a.u.).

“TCGAGTGTCGCGTCGGCTAATCGGAGTGTACAGTTGTGCACGGAGTCACCTAGTGCAG”: the binding signal was 3290 fluorescence intensity (a.u.).

In the case of “ACAGTGTGGCTGACGCCCTGCCGGTTTCTGCCGCCTCACGCGGAGTCACCTAGTGCAG”, the binding signal is 3530 fluorescence intensity (a.u.).

The record behind these values is publication PMC7819943, “Rice protein-binding microarrays: a tool to detect cis-acting elements near promoter regions in rice”.
